Laboratory results from PubChem BioAssay AID493014 (National Center for Advancing Translational Sciences (NCATS), 2011).
Several values for one entry are separate records, joined by “and”; a condition that tells them apart may be missing. Equal values may be shown once. This is one part of the list. The main result of the screen is listed elsewhere. These columns were measured beside it and carry no call. The list favours compounds with an active or inconclusive main result. The note in brackets gives the kind of curve behind each potency; many fits are weak.

Test: qHTS Assay to Find Inhibitors of Chronic Active B-Cell Receptor Signaling
Details: ABC-DLBCL IkBa-CBG/CBR reporter, luminescence ratio (green luciferase fused to IkBa over red control in TMD8 lymphoma cells), 4 h
In short: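 TMD8 human ABC-DLBCL cells with doxycycline-inducible IκBα–green luciferase fusion and unfused red luciferase, in 0.5% FBS medium; compounds up to 46 uM, 4 h at 37C. Green/red luminescence ratio, filter-overlap corrected, fitted to concentration-response curves.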

[1] = measured here: CBR red luminescence, cell number
[2] = measured here: IkBa-CBG green luminescence

Row | SMILES | AC50 [1] | AC50 [2]
1 | O=C(NC(=S)Nc1ccccc1N1CCOCC1)c1cccs1 | 2.91 µM [falling, partial curve] | 
2 | Cn1cc(C(=O)c2ccccc2)cc1-c1nc2ccccc2n1C | 8.2 µM [falling, partial curve, poor fit] | 
3 | Cn1nc(C(=O)Nc2ccccc2)c2c1-c1ccccc1S(=O)(=O)C2 | 8.91 µM [rising, partial curve] | 
4 | CCCCOc1ccc(-c2nc(-c3cccnc3)no2)cc1 | 3.26 µM [falling, partial curve, poor fit] | 
5 | COc1ccc(CC(=O)Nc2nc(-c3ccc(F)c(F)c3)cs2)cc1OC | 11.2 µM [falling, partial curve, poor fit] | 
6 | Oc1cccc(Nc2nc(-c3ccccc3)nc3ccccc23)c1 | 10 µM [falling, partial curve] | 
7 | CCOC(=O)c1cc(S(=O)(=O)NC2CCC(C)CC2)cn1C (centres undefined) | 35.5 µM [falling, partial curve, poor fit] | 
8 | O=C(O)Cc1csc(-c2ccc(F)cc2)n1 | 11.2 µM [rising, partial curve, poor fit] | 
9 | O=C(O)c1cc(N/N=C/c2ccc(N3CCOCC3)s2)ccc1Cl | 10.3 µM [falling, partial curve] | 
10 | COc1cc(/C=C/c2nnc3c4ccccc4ncn23)cc(OC)c1OC | 29.1 µM [falling, single point] | 
11 | Cc1ccc(NC(=O)c2noc3c2CCc2ccccc2-3)cc1 | 1.03 µM [falling, full curve] | 
12 | CCCn1cnc2cc(NCc3cccc(OC)c3O)ccc21 | 11.2 µM [rising, partial curve, poor fit] | 
13 | COc1ccc(C2NC(C(=O)O)Cc3c2[nH]c2ccccc32)cc1CN1CCN(c2ccc(F)cc2)CC1 (centres undefined) | 35.5 µM [falling, partial curve, poor fit] | 
14 | O=C(O)c1cccc(-c2noc(-c3cccc(Cl)c3)n2)c1 | 461 nM [falling, full curve] and 1.16 µM [falling, full curve] | 
15 | CSCCC(NS(=O)(=O)/C=C/c1ccccc1)C(=O)O (centres undefined) | 6.31 µM [rising, single point] | 
16 | O=C(CSc1nc2ccccc2s1)Nc1nccs1 | 31.6 µM [falling, single point] | 
17 | CN1C2CCC1CC(OC(c1ccccc1)c1ccccc1)C2 (centres undefined) | 3.98 µM [rising, single point] | 
18 | Cc1ccc(NC(=S)NCC(C)CSc2ccc(Cl)cc2)cc1 (centres undefined) | 35.5 µM [falling, single point] | 
19 | O=C(Cn1cnc2cc([N+](=O)[O-])ccc2c1=O)N(Cc1ccccc1)C1CCS(=O)(=O)C1 (centres undefined) | 8.91 µM [falling, partial curve, poor fit] | 
20 | O=C(NNC(=O)c1cccs1)c1ccc(Br)cc1 | 35.5 µM [falling, single point] | 
21 | Cc1noc(C)c1S(=O)(=O)N1CCC(C(=O)N2CCN(Cc3ccc4c(c3)OCO4)CC2)CC1 | 29.1 µM [falling, single point] | 

Full records, quoted from the list:
O=C(CSc1nc2ccccc2s1)Nc1nccs1 in the list: AC50 [1]: 31.6 µM [falling, single point]
O=C(O)Cc1csc(-c2ccc(F)cc2)n1 in the list: AC50 [1]: 11.2 µM [rising, partial curve, poor fit]

Later entries:

Row | SMILES | AC50 [1] | AC50 [2]
22 | COc1ccc(C2CC(=O)Oc3cc(O)ccc32)cc1 (centres undefined) | 29.1 µM [rising, single point] | 
23 | Cc1cc(NC(=O)Cn2nnc(-c3ccccc3N)n2)no1 | 32.6 µM [rising, single point] | 
24 | CC1(C)CC(=O)C(C=NCCN2CCN(C(=O)C34CC5CC(CC(C5)C3)C4)CC2)=C(O)C1 | 29.1 µM [rising, single point] | 
25 | Cc1ccc(NC(=O)C(Nc2cccc(C)c2)c2ccccc2)cc1 (centres undefined) | 29.1 µM [falling, single point] | 
26 | Cc1ccc(C2CC(c3cccs3)=NN2C(=O)c2ccc(Br)o2)cc1 (centres undefined) | 0.082 µM [falling, full curve, poor fit] | 
27 | O=C(O)c1cccc(-n2cccc2/C=C/[N+](=O)[O-])c1 | 35.5 µM [falling, single point] | 35.5 µM [rising, partial curve, poor fit]
28 | O=C(Nc1nnc(-c2ccc(Br)cc2)o1)c1cccc(N2C(=O)CCC2=O)c1 | 1.3 µM [falling, partial curve, poor fit] | 
29 | CCCC(=O)Nc1ccc(C(=O)Nc2cccc(OC)c2)cc1 |  | 3.26 µM [rising, partial curve, poor fit]
30 | Cc1ccc(-c2cc(C(=O)Nc3ccc(S(=O)(=O)Nc4onc(C)c4C)cc3)[nH]n2)c(O)c1 | 10 µM [falling, partial curve] | 
31 | Brc1ccccc1-c1nnc(COc2ncnc3c2cnn3-c2ccccc2)o1 | 0.316 µM [falling, full curve, poor fit] | 
32 | C/C(=N\NC(=O)c1ccc2c(c1)OCO2)c1ccc(O)cc1 | 17.8 µM [falling, partial curve, poor fit] | 
33 | CCN1CC=C2C(C#N)=C(N)C(C#N)(C#N)C(CCc3ccccc3)C2C1 (centres undefined) | 5.62 µM [rising, single point] | 
34 | COc1ccccc1CN1CCC(CNS(=O)(=O)c2cc(-c3cc(C)no3)ccc2C)CC1 | 15.8 µM [falling, single point] | 
35 | COc1ccc(N(CC(=O)Nc2ccc3c(c2)OCO3)S(C)(=O)=O)c(OC)c1 | 11.2 µM [rising, single point] | 
36 | COC(=O)c1ccc2c(=O)n(CCN3CCOCC3)c(=S)[nH]c2c1 | 2.31 µM [rising, partial curve, poor fit] | 
37 | CCOc1ccc(/C=N/NC(=O)C(=O)N2CCCCCC2)c2ccccc12 | 35.5 µM [falling, single point] | 
38 | CNc1nc2c(N)ncnc2n1[C@H]1O[C@@H](CO)[C@H](O)[C@@H]1O |  | 3.55 µM [falling, partial curve, poor fit]
39 | COC(=O)c1ccc(NC(=O)CCc2nnc3ccc(N4CCC5(CC4)OCCO5)nn23)cc1 | 0.501 µM [rising, full curve, poor fit] | 
40 | COC(=O)c1nc(N)sc1-c1ccc(Cl)cc1 | 2.82 µM [rising, partial curve, poor fit] | 
41 | CC(C)CN1C(=O)c2ccccc2C1(O)Cc1ccccc1 (centres undefined) | 23.1 µM [rising, single point] | 
42 | O=C(N/N=C/c1sc2ccccc2c1O)c1ccccc1 | 3.26 µM [falling, full curve] | 

Row | SMILES | AC50 [1] | AC50 [2]
43 | O=C(N=C1N=C2C=CC=CN2Cc2ccccc21)c1ccc(S(=O)(=O)N2CCOCC2)cc1 |  | 11.2 µM [rising, partial curve, poor fit]
44 | COc1cc2c(cc1OC)C(C)N(C(=O)c1cc3c(s1)-c1c(C)cccc1OC3)CC2 (centres undefined) | 29.1 µM [falling, single point] | 
45 | CCOC(=O)C(NC(=O)c1ccccc1Cl)(Nc1sc2c(c1C(N)=O)CCC2)C(F)(F)F (centres undefined) | 29.1 µM [falling, single point] | 
46 | NS(=O)(=O)c1ccc(CCNC(=O)c2ccc(C(=O)c3ccccc3)cc2)cc1 | 2 µM [falling, full curve, poor fit] | 
47 | Cn1c(=O)n(C)c2cc(C(=O)c3ccccc3)ccc21 | 29.1 µM [falling, single point] | 
48 | CNC(=O)C1CC(=O)N(CCc2ccc(OC)cc2)C(=Nc2ccc(OC)cc2)S1 (centres undefined) | 29.1 µM [rising, single point] | 
49 | COc1cccc(NC(=O)[C@H](CC(C)C)NC(=O)N2CCn3c2nc2ccccc23)c1 | 11.2 µM [falling, partial curve] | 
50 | Cc1ccc(NC(=O)COC(=O)C2CC(=O)N(Cc3ccccc3)C2)cc1S(=O)(=O)N(C)C (centres undefined) | 12.6 µM [rising, single point] | 
51 | COc1ccccc1-c1nnc(NC(=O)c2ccc3c(c2)OCO3)s1 | 0.2 µM [falling, full curve, poor fit] | 
52 | NC(=O)c1ccsc1NC(=O)COC(=O)c1ccc(Cl)cc1 | 9.2 µM [falling, partial curve, poor fit] | 
53 | O=C(CCC(=O)c1cccs1)NCc1cccc(Cl)c1 | 5.17 µM [rising, single point] | 
54 | CC(C)CCn1c(-c2nonc2N)nc2ccccc21 |  | 16.4 µM [rising, single point]
55 | CCC(=O)N(Cc1cc2c(C)cc(C)cc2[nH]c1=O)C1CCCCC1 | 15.8 µM [rising, partial curve, poor fit] | 
56 | O=C(NCC1COCCO1)c1cc(COc2c(F)cccc2F)on1 (centres undefined) | 4.47 µM [rising, full curve, poor fit] | 
57 | Cc1ccc(S(=O)(=O)CCC(=O)Nc2ccc3c(c2)OCO3)cc1 | 7.31 µM [rising, partial curve, poor fit] | 
58 | Nc1nn(-c2ccccc2)nc1C(=O)OCc1ccccc1F | 8.91 µM [falling, partial curve, poor fit] | 
59 | COC(=O)C1=NN(c2ccccc2)C2(S1)S/C(=C\c1ccccc1)C(=O)N2c1ccccc1 (centres undefined) | 29.1 µM [rising, single point] | 
60 | Cc1cccc(N(C)C(=O)C2CCN(S(=O)(=O)c3cccc4nonc34)CC2)c1 | 35.5 µM [falling, single point] | 
61 | O=C(COC(=O)CNC(=O)c1ccccc1)NCCNC(=O)COC(=O)CNC(=O)c1ccccc1 | 2.31 µM [rising, single point] | 
62 | COc1ccccc1C1=NC(c2ccccc2)CN1c1ccccc1 (centres undefined) | 14.1 µM [rising, single point] | 
63 | CCn1c(NC(=O)c2ccc(F)cc2)c2ccccc2nc1=O | 29.1 µM [rising, single point] | 
